Results are given in words; binding and its absence hold for the method and conditions named.
How the values were obtained:
Assay in all cases: SEC; both purified
[1] = molecular target: LdtMt2 BC module (residues 149-408) (M. tuberculosis H37Rv) (UniProt O53223)
[2] = molecular target: LdtMt2 AB module (residues 55-250) (M. tuberculosis H37Rv) (UniProt O53223)
[3] = molecular target: LdtMt2 complete extramembrane segment (residues 34-408) (M. tuberculosis H37Rv) (UniProt O53223)

With “LdtMt2 BC module (residues 149-408) (from UniProt O53223 149-408) (domain or fragment)” the binding [1] was “no binding”.
“LdtMt2 AB module (residues 55-250) (from UniProt O53223 55-250) (domain or fragment)” was tested, and the binding [2] was “no binding”.
For “LdtMt2 complete extramembrane segment (residues 34-408) (from UniProt O53223 34-408) (domain or fragment)”, the binding [3] was “no binding”.

Source: PMC3605044
